Results deposited as PubChem BioAssay AID504764 (Drosophila RNAi Screening Center, 2011).

- Test: 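Genes whose knock-down alters Notch-dependent transcription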 (primary screen)
- System: Drosophila Kc167 cells
- Reagent: long dsRNA against Drosophila genes
- Timing: about 5 days (4 days dsRNA, then 24 h after transfection)
- Treatment: transfection of constitutively active membrane-tethered Notch lacking the extracellular domain, read 24 h later
- Measurement: 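Firefly luciferase from an E(spl)m3 reporter with active Notch, plus control-promoter and uninduced reporter wells for normalisation; unnormalised counts, duplicate wells a and b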
- Scale: induced reporter light, run 1, well a and induced reporter light, run 1, well b: higher = more light from the Notch target reporter with active Notch; control promoter light, run 1, well a and control promoter light, run 1, well b: higher = more light from the viral control promoter (cell number, transfection, viability); uninduced reporter light, run 1, well a: higher = more light from the Notch target reporter without active Notch
- Call rule: 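Wells with low control signal or poorly matching duplicates excluded; duplicates averaged; per source plate, z beyond ±2 for induced/control log2 ratio or beyond ±1.8 for induced/uninduced marks a hit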
- Calls: active = modifier hit (raised or lowered Notch signal); inactive = not a hit
The deposit covers about 22,000 reagents; shown is an unselected part of those with a known target gene and a result. In the full data, 403 (1.9%) were called active. 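Unnormalised raw counts per well; ratio z-scores behind the hit calls and whether each hit raises or lowers signal are not deposited.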 A number with no mark means an inactive call. A plus sign joins genes that one reagent is predicted to hit. Not given: the amount of reagent.

Gene,PubChem SID,"induced reporter light, run 1, well a","induced reporter light, run 1, well b","control promoter light, run 1, well a","control promoter light, run 1, well b","uninduced reporter light, run 1, well a"
kermit,SID104185866,1.79e5,1.77e5,1.52e5,1.36e5,12000
Gr94a (Gustatory receptor 94a),SID104193389,1.08e5,89185,1.54e5,1.13e5,11380
Ir7a (Ionotropic receptor 7a),SID104197658,88925,77820,1.15e5,1.43e5,7985
wun (wunen),SID104187511,1.99e5,2.15e5,1.64e5,1.27e5,17110
Akh (Adipokinetic hormone),SID104187930,72865,76500,1.18e5,96200,5505
RpL22-like (Ribosomal protein L22-like),SID104184374,1.86e5,1.66e5,1.63e5,1.64e5,13290
out (outsiders),SID104199139,1.26e5,1.18e5,86985,62650,8565
dgt4 (dim gamma-tubulin 4),SID104198451,1.60e5,1.53e5,2.48e5,2.35e5,12320
CG32647,SID104199482,1.39e5,1.36e5,2.75e5,2.27e5,11455
CG32647,SID104199670,84170,92640,2.11e5,1.80e5,6235
CG3916,SID104195312,56325,69045,65495,55860,4510
CG7011,SID104189139,1.63e5,1.52e5,2.14e5,2.67e5,16980
RpL38 (Ribosomal protein L38),SID104187610,1.01e5,73505,1.38e5,1.27e5,3840
BEAF-32 + CG42254 (retired record),SID104185295,1.87e5,1.97e5,2.75e5,2.68e5,16200
Karybeta3 (Karyopherin beta 3),SID104192147,1.38e5,1.40e5,65395,79270,5620
CG42553,SID104188148,1.08e5,1.65e5,1.52e5,2.25e5,7278
Pop5 (POP5 ribonuclease P/MRP subunit),SID104189866,2.25e5,1.91e5,3.47e5,2.73e5,11480
CG10035,SID104193969,80330,67470,78490,57810,4150
CG32176,SID104189849,1.47e5,1.43e5,1.85e5,1.61e5,7590
CG32176,SID104189850,1.21e5,1.26e5,2.04e5,1.78e5,6860
Awh (Arrowhead),SID104187932,1.18e5,1.54e5,1.92e5,1.87e5,8915
Gas41,SID104182948,1.65e5,1.35e5,1.93e5,2.16e5,16055
tio (tiptop),SID104183531,41090,34185,45740,41045,3765
CG14631,SID104197584,74170,80375,1.13e5,1.24e5,6360
CG14631,SID104197733,76250,75495,86625,94350,5440
Taf3 (TBP-associated factor 3),SID104196962,1.57e5 (active),1.75e5,99210,99960,12175
Agpat4 (1-Acylglycerol-3-phosphate O-acyltransferase 4),SID104190238,1.31e5,1.38e5,1.68e5,1.45e5,6645
CG31793,SID104182397,41725,30620,75690,36755,3640
CG31111,SID104194441,1.14e5,1.28e5,1.37e5,1.40e5,7915
CG43345,SID104182956,1.75e5,1.70e5,1.57e5,1.71e5,15015
CG6108 (retired record),SID104182721,1.10e5,1.14e5,1.24e5,1.19e5,9680
Rtel1 (Regulator of telomere elongation helicase 1),SID104198135,1.16e5,1.24e5,2.50e5,2.35e5,9932
CG33255 (retired record) + hpRNA:CR32205,SID104189402,2.19e5,2.19e5,2.45e5,2.45e5,18220
CG33255 (retired record) + hpRNA:CR32205,SID104189403,2.56e5,2.03e5,3.05e5,2.66e5,20600
CG17698,SID104191699,1.06e5,92730,84775,69900,7820
CG6136,SID104195767,1.51e5,1.38e5,1.33e5,1.35e5,11465
Ir52d (Ionotropic receptor 52d),SID104186056,83165,88465,1.24e5,1.36e5,7590
Pop1 (POP1 ribonuclease P/MRP subunit),SID104197531,2.40e5,2.12e5,3.19e5,3.44e5,15340
CG42674,SID104189858,71920,58160,1.28e5,1.22e5,4380
CG42674,SID104189859,1.38e5,1.34e5,1.90e5,1.35e5,9910
CG42674,SID104190603,1.35e5,1.30e5,1.20e5,97645,10160
Sfp26Ad (Seminal fluid protein 26Ad),SID104180696,1.17e5,1.38e5,2.14e5,2.10e5,9440
Las (Lipoic acid synthase),SID104191564,90205,1.05e5,60690,76440,8525
Cyp4s3 (Cytochrome P450 4s3),SID104200033,1.25e5,95825,1.33e5,1.06e5,16655
temp (tempura),SID104198063,1.93e5,1.67e5,2.01e5,2.50e5,12810
qkr58E-3 (quaking related 58E-3),SID104184503,1.84e5,2.29e5,1.69e5,1.94e5,16245
CG11597,SID104189639,1.42e5,1.37e5,1.25e5,83705,15355
CG13331,SID104186158,91260,93555,1.10e5,1.26e5,9600
CG12984,SID104191485,1.43e5,1.22e5,1.20e5,1.03e5,8575
Polr2G (RNA polymerase II subunit G),SID104195860,52920,45975,36155,32475,3610

In a second layout: results already given.
CG33255 (retired record) + hpRNA:CR32205 [SID104189402]
- induced reporter light, run 1, well a: 2.19e5
- induced reporter light, run 1, well b: 2.19e5
- control promoter light, run 1, well a: 2.45e5
- control promoter light, run 1, well b: 2.45e5
- uninduced reporter light, run 1, well a: 18220

CG33255 (retired record) + hpRNA:CR32205 [SID104189403]
- induced reporter light, run 1, well a: 2.56e5
- induced reporter light, run 1, well b: 2.03e5
- control promoter light, run 1, well a: 3.05e5
- control promoter light, run 1, well b: 2.66e5
- uninduced reporter light, run 1, well a: 20600
